The test system of this assay is P388 leukemia ip, CD2F1 mice, survival T/C. Briefly: NCI In Vivo Anticancer Drug Screen. Data for tumor model P388 Leukemia (intraperitoneal) in CD2F1 (CDF1) mice. The settings on record: T/C endpoint: median survival time, higher T/C = longer survival.

The list does not hold the whole screen: it gathers tests that were run many times, whatever their T/C, doses with no T/C, and many T/C values between a quarter and a half above the control. Further doses and runs are listed elsewhere. T/C is the treated group as % of the vehicle group. Some entries give survivors of the animals treated and no T/C: the source holds a T/C of zero for them, seemingly a mark for toxic or unscored doses. Some survivor counts are full or nearly so, which does not show that the dose was tolerated: the source hardly ever lists a survival T/C far under the control, and the zero likely stands for such cases as well. Survivors were counted at the toxicity check, usually on the fifth day, unless a day is given; later deaths do not show. Schedules are NCI's codes, taken here to give the interval after Q, in days (D) or hours (H), and the number of doses after X. For survival time, the PubChem record calls one and a half times the control and up active, and a quarter to a half above the control has no call in these data; cut-offs in other NCI protocols can differ. Some entries hold several experiments; the values are given in rising order.

Take `CO[C@H]1C[C@@H]2CC[C@@H](C)[C@@](O)(O2)C(=O)C(=O)N2CCCC[C@H]2C(=O)O[C@H]([C@H](C)C[C@@H]2CC[C@@H](O)[C@H](OC)C2)CC(=O)[C@H](C)C=C(C)[C@@H](O)[C@@H](OC)C(=O)[C@H](C)C[C@H](C)/C=C/C=C/C=C1C`: the T/C is, setting by setting: (dose: 6.25 mg/kg/injection, schedule: Q01DX005 (ip), vehicle: clinical formulation) 131 % of control; (dose: 6.25 mg/kg/injection, schedule: Q01DX009 (ip), vehicle: clinical formulation) 141 % of control; (dose: 12.5 mg/kg/injection, schedule: Q01DX005 (ip), vehicle: clinical formulation) 128 % of control; (dose: 12.5 mg/kg/injection, schedule: Q01DX009 (ip), vehicle: clinical formulation) 141 % of control; (dose: 12.5 mg/kg/injection, schedule: Q01DX009 (ip), vehicle: gum acacia) 139 % of control; (dose: 12.5 mg/kg/injection, schedule: Q01DX009 (ip), vehicle: saline with Tween-80, evaluated on day 30) 136 % of control. For the same molecule, the T/C is 127 % of control (dose: 12.5 mg/kg/injection, schedule: Q01DX009 (ip), vehicle: saline with Tween-80, evaluated on day 60); 137 % of control (dose: 25.0 mg/kg/injection, schedule: Q01DX005 (ip), vehicle: clinical formulation); 135 % of control (dose: 25.0 mg/kg/injection, schedule: Q01DX009 (ip), vehicle: clinical formulation); 130 % of control (dose: 25.0 mg/kg/injection, schedule: Q01DX009 (ip), vehicle: gum acacia); 136 % of control (dose: 25.0 mg/kg/injection, schedule: Q01DX009 (ip), vehicle: saline with Tween-80, evaluated on day 30); 133 % of control (dose: 25.0 mg/kg/injection, schedule: Q01DX009 (ip), vehicle: saline with Tween-80, evaluated on day 60). Further, the T/C was 134 % of control (dose: 50.0 mg/kg/injection, schedule: Q01DX005 (ip), vehicle: clinical formulation); 146 % of control (dose: 50.0 mg/kg/injection, schedule: Q01DX009 (ip), vehicle: clinical formulation); 135 % of control (dose: 50.0 mg/kg/injection, schedule: Q01DX009 (ip), vehicle: gum acacia); 140 % of control (dose: 50.0 mg/kg/injection, schedule: Q01DX009 (ip), vehicle: saline with Tween-80, evaluated on day 30); 131 % of control (dose: 50.0 mg/kg/injection, schedule: Q01DX009 (ip), vehicle: saline with Tween-80, evaluated on day 60); 146 % of control (dose: 100.0 mg/kg/injection, schedule: Q01DX009 (ip), vehicle: clinical formulation). Further, the T/C reads like this: (dose: 100.0 mg/kg/injection, schedule: Q01DX009 (ip), vehicle: gum acacia) 134 % of control; (dose: 100.0 mg/kg/injection, schedule: Q01DX009 (ip), vehicle: saline with Tween-80, evaluated on day 30) 134 % of control; (dose: 100.0 mg/kg/injection, schedule: Q01DX009 (ip), vehicle: saline with Tween-80, evaluated on day 60) 136 % of control; (dose: 200.0 mg/kg/injection, schedule: Q01DX001 (ip), vehicle: saline with Tween-80) 142 % of control; (dose: 200.0 mg/kg/injection, schedule: Q01DX009 (ip), vehicle: gum acacia) 141 % of control; (dose: 200.0 mg/kg/injection, schedule: Q01DX009 (ip), vehicle: saline with Tween-80) 128 % of control. The T/C is 128 and 136 % of control (dose: 400.0 mg/kg/injection, schedule: Q01DX001 (ip), vehicle: saline with Tween-80); 129 % of control (dose: 400.0 mg/kg/injection, schedule: Q01DX009 (ip), vehicle: gum acacia); 138 % of control (dose: 400.0 mg/kg/injection, schedule: Q01DX009 (ip), vehicle: saline with Tween-80, evaluated on day 30); 125 % of control (dose: 400.0 mg/kg/injection, schedule: Q01DX009 (ip), vehicle: saline with Tween-80, evaluated on day 60); 136 % of control (dose: 600.0 mg/kg/injection, schedule: Q01DX001 (ip), vehicle: saline with Tween-80); 128 and 136 % of control (dose: 800.0 mg/kg/injection, schedule: Q01DX001 (ip), vehicle: saline with Tween-80). The T/C (dose: 1600.0 mg/kg/injection, schedule: Q01DX001 (ip), vehicle: saline with Tween-80) is 133 % of control. For the same molecule, the survivor count by setting is: (dose: 100.0 mg/kg/injection, schedule: Q01DX005 (iv), vehicle: clinical formulation) 0 of 10; (dose: 200.0 mg/kg/injection, schedule: Q01DX001 (iv), vehicle: clinical formulation) 0 of 10; (dose: 200.0 mg/kg/injection, schedule: Q01DX005 (ip), vehicle: clinical formulation) 1 of 10; (dose: 200.0 mg/kg/injection, schedule: Q01DX005 (iv), vehicle: clinical formulation) 0 of 10; (dose: 200.0 mg/kg/injection, schedule: Q01DX009 (ip), vehicle: clinical formulation) 2 of 10.

As to `O/N=C/C1CCCC[N-]1.O/N=C/C1CCCC[N-]1.O/N=C/C1CCCC[N-]1.[Cu]` (stereo not given), the survivor count was 6 of 6 (dose: 6.25 mg/kg/injection, schedule: Q01DX009 (ip), vehicle: saline); 5 of 6 (dose: 12.5 mg/kg/injection, schedule: Q01DX009 (ip), vehicle: saline); 1 of 6 (dose: 25.0 mg/kg/injection, schedule: Q01DX009 (ip), vehicle: saline); 0 of 6 (dose: 50.0 mg/kg/injection, schedule: Q01DX009 (ip), vehicle: saline); 0 of 6 (dose: 100.0 mg/kg/injection, schedule: Q01DX009 (ip), vehicle: saline); 0 of 6 (dose: 200.0 mg/kg/injection, schedule: Q01DX009 (ip), vehicle: saline).

For the molecule `C=CCc1ccccc1C`, the survivor count (dose: 400.0 mg/kg/injection, schedule: Q01DX009 (ip), vehicle: saline with Tween-80) is given as 2 of 6.

As to `Cc1nn(C(=O)c2cccnc2)c(-c2ccccc2)c1N=Nc1ccc(S(=O)(=O)Nc2ncccn2)cc1`, for the setting “dose: 200.0 mg/kg/injection, schedule: Q01DX005 (ip), vehicle: saline with Tween-80”, the survivor count is 6 of 6.

With `CCC(c1ccc(OC)cc1)C(NCC(=O)NNC(=O)CNC(c1ccc(OC)cc1)C(CC)c1ccc(OC)cc1)c1ccc(OC)cc1` (stereo not given), the survivor count (dose: 100.0 mg/kg/injection, schedule: Q04DX002 (ip), vehicle: saline with Tween-80) was 5 of 6.

Regarding `CC(=O)Oc1ccccc1C(=O)O`, for the setting “dose: 250.0 mg/kg/injection, schedule: Q01DX009 (ip), vehicle: saline with Tween-80”, the survivor count was 3 of 6.

For the molecule `COC(=O)CC1(C(=O)OC)c2sc(-c3ccccc3)c(-c3ccccc3)c2N2CCCC21` (stereo not given), the survivor count (dose: 90.0 mg/kg/injection, schedule: Q01DX009 (ip), vehicle: Klucel (hydroxypropylcellulose) (HPC)) was 5 of 5.

Consider `CN1CCC23c4c5ccc(O)c4OC2C(O)C=CC3C1C5` (stereo not given), for which, where the note is “dose: 256.0 mg/kg/injection, schedule: Q01DX009 (ip), vehicle: saline”, the T/C is 125 % of control.

Regarding `Clc1nc(SC2=NCCN2)c2[nH]cnc2n1`, the T/C (dose: 20.0 mg/kg/injection, schedule: Q01DX009 (ip), vehicle: saline with Tween-80) was 125 % of control. Besides, the survivor count is reported as 5 of 6 (dose: 40.0 mg/kg/injection, schedule: Q01DX009 (ip), vehicle: saline with Tween-80) and 0 of 6 (dose: 80.0 mg/kg/injection, schedule: Q01DX009 (ip), vehicle: saline with Tween-80).

In the case of `CC(=O)Nc1cccc2c1C(=O)c1nccnc1C2=O`, the survivor count (dose: 100.0 mg/kg/injection, schedule: Q04DX002 (ip), vehicle: Klucel + Tween-80) was 1 of 6; the survivor count (dose: 200.0 mg/kg/injection, schedule: Q04DX002 (ip), vehicle: Klucel + Tween-80) is on record as 0 of 6; the survivor count (dose: 400.0 mg/kg/injection, schedule: Q04DX002 (ip), vehicle: Klucel + Tween-80) was 0 of 6.

Take `O=[N+]([O-])c1ccc2nccc(Cl)c2c1`: under “dose: 50.0 mg/kg/injection, schedule: Q01DX009 (ip), vehicle: Klucel (hydroxypropylcellulose) (HPC)”, the survivor count was 3 of 6.

(Values after PubChem BioAssay AID330 (DTP/NCI, 2004).)
